Measured values from paper PMC12255723.
These are yes or no findings as the source states them, for the method shown. In cells and extracts the contact can be indirect. A yes stands for co-enrichment or nearness to the bait. Other partners may have been found.

Sequences of proteins named here, by UniProt entry; tags and fusion partners are left off.
UniProt P17844: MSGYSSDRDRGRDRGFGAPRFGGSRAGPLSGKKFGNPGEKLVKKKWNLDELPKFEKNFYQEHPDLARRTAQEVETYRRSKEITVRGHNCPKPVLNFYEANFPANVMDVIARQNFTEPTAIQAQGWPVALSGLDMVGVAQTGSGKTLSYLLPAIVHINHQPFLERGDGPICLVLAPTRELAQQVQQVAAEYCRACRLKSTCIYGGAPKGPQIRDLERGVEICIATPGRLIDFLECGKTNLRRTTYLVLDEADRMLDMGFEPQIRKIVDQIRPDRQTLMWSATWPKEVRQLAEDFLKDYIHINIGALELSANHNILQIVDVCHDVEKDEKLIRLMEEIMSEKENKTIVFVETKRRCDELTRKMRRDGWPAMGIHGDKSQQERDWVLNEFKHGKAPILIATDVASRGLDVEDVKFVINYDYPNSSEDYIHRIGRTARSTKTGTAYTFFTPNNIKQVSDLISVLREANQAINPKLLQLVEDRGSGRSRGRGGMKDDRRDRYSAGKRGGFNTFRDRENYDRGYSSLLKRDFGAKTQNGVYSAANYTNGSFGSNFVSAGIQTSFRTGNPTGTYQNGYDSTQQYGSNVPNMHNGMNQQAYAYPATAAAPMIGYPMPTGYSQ

Biological target: T1, OTUD6B (bait of the IP-MS) (UniProt Q8N6M0)
T1 sequence: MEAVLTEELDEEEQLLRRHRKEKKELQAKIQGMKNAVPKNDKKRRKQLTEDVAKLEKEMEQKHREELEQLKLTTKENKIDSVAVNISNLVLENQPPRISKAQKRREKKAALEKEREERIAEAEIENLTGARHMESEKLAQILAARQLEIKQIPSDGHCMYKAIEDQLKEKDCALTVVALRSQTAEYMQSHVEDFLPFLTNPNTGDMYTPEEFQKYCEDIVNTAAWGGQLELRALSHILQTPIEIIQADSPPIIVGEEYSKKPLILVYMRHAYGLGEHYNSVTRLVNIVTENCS
Assay: affinity purification with mass spectrometry; immunoprecipitation of OTUD6B from HCT116 cells and mass spectrometry (IP-MS); 558 interacting proteins

Substance: DDX5 (from UniProt P17844 1-614) (enzyme)
- binding: binds
